Test results published in patent publication US7534606B2, “Placental stem cell and methods thereof” (National Health Research Institutes, priority 2004, dated 2009).
At least one compound was matched to its structure with a doubt left.

Test system: placental stem cells
Assay type: cell-based
Details: 3 to 6 days in medium
Method: Immunocytochemistry and immunofluorescence and RT-PCR. Cultured cells were fixed with 4% paraformaldehyde for 5 minutes at room temperature and permeabilized with 0.1% Triton-X 100 for 20 minutes. Slides were then incubated sequentially with primary antibody overnight at 4° C. For immunocytochemistry, primary antibodies against NSE (Sigma) (1:25) was applied, followed by biotinylated anti-rabbit antibody and an avidin-biotin conjugate of hourseradish peroxidase (Vector Laboratories, Burlingame, Calif., USA). For immunofluorescence staining, primary antibodies against NeuN (Chemicon International Inc., Temecula, Calif., USA) (1:100), Nestin (BD Biosciences) (1:100), GFAP (glial fibrillary acidic protein, Chemicon International Inc.) (1:100), MAP2 (microtubule-associated protein 2, Chemicon International Inc.) (1:200), and NG2 (Chemicon International Inc.) (1:50) were used. […] Cells were visualized by confocal fluorescence microscopy (Zeiss, LSM 510). […]
Differentiation to neural-like cells was quantified as a percentage of the total number of […] stem cells grown under differentiation conditions. Cells were stained for NSE expression and analyzed under an invert microscope. […] Total cell count was determined by staining with 4′,6-diamidino-2-phenylindole (DAPI), which stains nuclei specifically, or with anti-human nuclei antibody (1:50) (Chemicon International Inc.).

CC1=C(/C=C/C(C)=C/C=C/C(C)=C/C(=O)O)C(C)(C)CCC1 [RA, retinoic acid]
morphological changes (cytoplasm retracted, extensions) (RA 10^−6M, IBMX 0.5 mM, compared with expansion medium): morphological changes | NSE expression compared with control cells (immunocytochemical staining): higher levels of NSE
